Results deposited as PubChem BioAssay AID504786 (Drosophila RNAi Screening Center, 2011).

- Aim: 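Knock-downs reducing HIF reporter induction by the iron chelator DFO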 (primary screen)
- Cell system: Drosophila S2 cells with a stable HIF luciferase reporter
- Reagents: long dsRNA against Drosophila genes, about 0.2 µg dsRNA per well of a 384-well plate
- Time to read-out: three days of knock-down, then 20 h of DFO before reading
- Treatment: desferrioxamine (DFO) at 100 µM, an iron chelator that mimics hypoxia, for 20 h
- Read-out: 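HIF reporter luminescence in cells given 100 µM DFO for 20 h, using the mouse ldh-a hypoxia-response element, scored as per-plate z-scores; higher means greater loss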
- Reading the numbers: z-score: higher = stronger loss of HIF reporter signal
The screen tested about 21,000 reagents; below is an unselected part of those with a known target gene and a result. 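Primary screen; positive scores mean lost reporter signal, so the sign may be inverted from the usual convention.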 Not all columns of the deposit are shown.

Gene	amplicon	z-score, replicate 1	z-score, replicate 2	z-score, replicate 3
dbo	DRSC11339	-0.2	-0.4	
Lcp1	DRSC07455	-0.4	-0.6	
CG31262	DRSC13216	0.1	0.2	
SamDC	DRSC03429	-0.4	-0.3	
CG11858	DRSC14412	-0.5	-0.8	
Trf2	DRSC18727	-0.5	0.5	
CCHa1-R	DRSC06456	-0.1	-0.3	
CCHa1-R	DRSC06715	-0.3	0	
Rca1	DRSC03407	0.9	2.3	
CG9109	DRSC03139	0.1	-0.1	
CG10183	DRSC14203	0	-0.1	
RalGPS	DRSC06941	-0.2	-0.4	
Ptp99A	DRSC13933	-0.1	-0.2	-0.3
Ptp99A	DRSC13939	-0.2	-0.2	
Ptp99A	DRSC14319	-0.6	-0.3	
Ptp99A	DRSC14320	-0.5	-0.5	
Ptp99A	DRSC16803	-0.4	-0.4	
Tlk	DRSC17731	-0.5	-0.9	
Tlk	DRSC17835	2.4	2.1	
Spt-I	DRSC06860	-0.5	-0.6	
CG3526	DRSC17240	-0.1	-0.3	
CG3526	DRSC18636	-0.3	-0.6	
Vps13	DRSC06817	-0.1	-0.2	
Surf1	DRSC11295	0.1	2.2	
Surf1	DRSC11394	-0.3	-0.7	
GCS2beta	DRSC02960	0.3	0	
dock	DRSC00812	-0.3	-0.5	
Rsph9	DRSC01594	-0.1	-0.6	
RpS27A	DRSC03421	3.7	3	
Duba	DRSC10582	-0.1	0.2	
Dhpr	DRSC11135	-0.4	0	
intr	DRSC14528	-0.3	-0.2	
CG6179	DRSC19973	-0.1	-0.3	
Pvf2	DRSC00968	2.6	5.2	
Pvf2	DRSC02283	2	1.7	
CG11816	DRSC19428	0.1	0.1	
CG32147	DRSC09346	-0.6	-0.1	
smal	DRSC02318	-0.3	-0.4	-0.4
smal	DRSC02319	-0.4	-0.5	
smal	DRSC02320	-0.4	0	
smal	DRSC02504	-0.3	-0.3	
CG14657	DRSC12219	-0.4	-0.5	
CG14657	DRSC12243	-0.4	-0.1	
CG6118	DRSC15968	-0.3	0.2	
ovo	DRSC18050	-0.3	0.3	
ovo	DRSC18812	-0.3	0	
CG42360	DRSC04224	0	-0.3	
BG642163	DRSC00342	-0.2	-0.2	
BG642163	DRSC00343	-0.3	-0.3	
CG9162 (retired record)	DRSC03151	-0.3	-0.4	
Osi13	DRSC12281	-0.1	0.3	
CG16781	DRSC18117	-0.2	0.5	
SpdS	DRSC16408	-0.4	-0.8	
CG4045	DRSC18518	-0.3	-0.3	
CngB	DRSC04297	-0.3	0.2	
CG34217	DRSC05083	-0.1	0.2	

Part of the list above in another layout.
Rsph9 [DRSC01594] — z-score, replicate 1: -0.1; z-score, replicate 2: -0.6
RpS27A [DRSC03421] — z-score, replicate 1: 3.7; z-score, replicate 2: 3
Duba [DRSC10582] — z-score, replicate 1: -0.1; z-score, replicate 2: 0.2
Dhpr [DRSC11135] — z-score, replicate 1: -0.4; z-score, replicate 2: 0
intr [DRSC14528] — z-score, replicate 1: -0.3; z-score, replicate 2: -0.2
CG6179 [DRSC19973] — z-score, replicate 1: -0.1; z-score, replicate 2: -0.3
Pvf2 [DRSC00968] — z-score, replicate 1: 2.6; z-score, replicate 2: 5.2
